This is an account of results in the supplement of paper PMC12578635.

SMILES strings stand for the structures. ± gives the standard deviation of the averaged measurements. The list shows a part of the results. Many values rest on one well or one pass, so single values are uncertain.

The assay deals with RAW 264.7 macrophages infected with S. aureus JE2-lux. As to the kind of experiment: host macrophage viability (CellTiter-Fluor) relative to DMSO vehicle; higher = more viable host cells. To be noted: 10 µM; treatment time 4 h; gentamicin 50 µg/ml.
On to `O=C1CC(c2ccccc2)=NN1c1ccc2ccccc2c1`, for which the host macrophage viability was found to be 110 ± 13%.

Regarding `O=C(NC1CCN(C(=O)CNCc2ccc3c(c2)OCO3)CC1)c1ccccc1F`, the host macrophage viability was 113%.

In the case of `N=C1NC(=O)C(CC(=O)Nc2ccc(N3CCOCC3)cc2)S1` (stereo not drawn), the host macrophage viability came to 124%. For the molecule `CC(=O)N1N=C(c2ccc(NS(C)(=O)=O)cc2)CC1c1ccc2c(c1)OCO2` (stereo not drawn), the host macrophage viability was 104%.

Take `CCOc1cccc2sc(NNC(=O)c3ccccc3)nc12`: the host macrophage viability worked out at 110 ± 8.9%.

For `N#C/C(C(=O)NCCc1ccccc1)=C1/N=C(NC(=O)c2cccs2)c2ccccc21`, the host macrophage viability was found to be 135%. For the molecule `O=C(NC1CCCCC1)NC1(C(=O)Nc2ccc3c(c2)OCCO3)CCCCC1`, the host macrophage viability came out at 129%. For the molecule `COc1ccc(S(=O)(=O)NCc2ccco2)cc1[N+](=O)[O-]`, the host macrophage viability was found to be 109%.

Regarding `CCOC(=O)c1nn(-c2ccccc2)c(=O)c2c(NC(=O)C(C)Oc3ccccc3)scc12` (stereo not drawn), the host macrophage viability is 114.6 ± 0.95%.

For `CC1=C(C(=O)OCc2ccccc2)C(c2ccc(Cl)cc2)C(C#N)=C(N)O1` (stereo not drawn), the host macrophage viability was found to be 109%. Turning to `O=C(NCc1ccc2c(c1)OCO2)C1CCCN1C(=O)Nc1ccc(Cl)cc1` (stereo not drawn), the host macrophage viability came to 114%.

As for `Cc1n[nH]c(SCCNCc2cc3c(C)nn(-c4ccc(F)cc4)c3[nH]c2=O)n1`, the host macrophage viability was 94.9%. Regarding `COc1ccccc1-n1c(SCC(=O)Nc2cccc3ccccc23)nc2c(c1=O)SCC2`, the host macrophage viability was 106%. On to `COc1ccc(/C=C/C(=O)O)cc1S(=O)(=O)NCc1ccc2c(c1)OCO2`, for which the host macrophage viability came out at 115%.

Turning to `CCc1cccc(C)c1Nc1nc(N)c(C(=O)CC(C)C)s1`, the host macrophage viability was found to be 124%. For `O=C(Nc1ccc(F)cc1)c1c(O)c2ccccc2[nH]c1=O`, the host macrophage viability is 136%. Then `COc1cccc(NC(=O)CSc2nn3c(=O)c(C)nnc3s2)c1`, with 123%. As to `COc1cccc(NC(=O)c2ccc(COc3cccc(C)c3)o2)c1`, the host macrophage viability stood at 108%.

Turning to `CC1(C)CC(=O)C2=C(C1)OC(N)=C(C#N)C2Cc1ccccc1` (stereo not drawn), the host macrophage viability is 132%. Then `COCCNC(=O)c1cnc2c(OC)cc(OC)cc2c1O`, with 105%; and `Cc1ccc(C)c(S(=O)(=O)Nc2ccc(O)c3ccccc23)c1`, with 101 ± 3%; and `O=C1N/C(=N/c2ccc(O)cc2)S/C1=C\c1cccnc1`, with 130%. For the molecule `CC(=O)Nc1ccc(NS(=O)(=O)c2c[nH]c(=O)[nH]c2=O)cc1`, the host macrophage viability was 113%. As to `COc1ccc(Nc2ncnc3sc(C(=O)O)c(C)c23)cc1Cl`, the host macrophage viability was found to be 100%. The figure for `Cc1sc2nc(C(C)C)n(C3CCN(C(=O)c4ccco4)CC3)c(=O)c2c1C` is 95.1%. Turning to `COC(=O)C1CCN(C(c2ccc(Cl)c(Cl)c2)c2sc3nc(C)nn3c2O)CC1` (stereo not drawn), the host macrophage viability was 113%.

In the case of `Cc1cc(Sc2ccc(N)cc2)n2nc(C)nc2n1`, the host macrophage viability is 110%. On to `NC(=O)C1CCCN(C(=O)c2ncoc2-c2cccc(F)c2)C1` (stereo not drawn), for which the host macrophage viability was found to be 112%. Turning to `O=C(CSc1nc2ccccc2[nH]1)c1cccs1`, the host macrophage viability was found to be 117%. For the molecule `CCN(CC)CCCNc1ncnc2sc3c(c12)CC(C)CC3` (stereo not drawn), the host macrophage viability came to 112%. Consider `Cc1ccc(NC(=O)N2CCC(n3cnc4cccnc43)CC2)cc1Cl`, for which the host macrophage viability turned out to be 123%. With `O=C(CSc1nnc2[nH]c(=O)ccn12)NCc1ccccc1Cl`, the host macrophage viability came to 102%. Consider `CCN(C(=O)c1ccccn1)c1nc2c(s1)CCc1oc(C)cc1-2`, for which the host macrophage viability came out at 137%. `O=C(Nc1ccc2c(c1)CCC2)c1cccc2nccnc12`: the host macrophage viability stood at 120%.

Turning to `COc1ccc(NC(=O)CSc2nnc3c(C)cc4ccccc4n23)cc1`, the host macrophage viability came out at 124%. On to `Cc1ccc(N2C(=O)c3cc4ccsc4n3CC2(C)C(=O)NC2CCCC2)c(Cl)c1` (stereo not drawn), for which the host macrophage viability was determined as 117%. The figure for `COc1ccc2sc(Nc3cccc(Br)c3)nc2c1` is 107%; for `Fc1ccc(-c2ccc(/C=N/n3cnnc3)o2)cc1` it is 127%.

Take `O=C(NCc1ccc(F)cc1)C1CCN(C(=O)Nc2cccc(Cl)c2)CC1`: the host macrophage viability was found to be 115%. With `CC(=O)Nc1cccc(NC(=O)C(=O)NCCSc2nc(-c3ccccc3)c[nH]2)c1`, the host macrophage viability was 118%.

`COc1ccccc1CNC(=O)C1c2ccccc2C(=O)N1Cc1cccnc1` (stereo not drawn): the host macrophage viability is 116%. Then `O=C(CSc1nnc2c3ccccc3nc(Cc3ccccc3)n12)Nc1nccs1`, with 122%; and `COc1ccccc1CCNC(=O)c1c(O)nc2cc(C)ccn2c1=O`, with 114%. `CCSc1nnc(NC(=O)CSc2nnc(C)c(=O)n2N)s1`: the host macrophage viability was 122%. `O=C1CCc2cc(S(=O)(=O)NCC(c3ccccc3)N3CCOCC3)ccc2N1` (stereo not drawn): the host macrophage viability is 126%.

For `Cc1ccc2nnc(-c3ccccc3)c(C(=O)NCc3ccc4c(c3)OCO4)c2c1`, the host macrophage viability is 122%.

Consider `CCc1cccc(C)c1NC(=O)Cn1c(=O)c2cccnc2n(-c2ccccc2)c1=O`, for which the host macrophage viability worked out at 109%. In the case of `CN(C)c1ccc(NC(=O)CSc2nnc3c(n2)[nH]c2ccc(Cl)cc23)cc1`, the host macrophage viability came out at 115%. Take `COc1cc2cc(C#N)c(SCC(=O)Nc3ccc4c(c3)OCCO4)nc2cc1OC`: the host macrophage viability worked out at 114%.

`Cc1ccc(-c2cc3c(N4CCC(C(=O)NC5CCCC5)CC4)nccn3n2)cc1C`: the host macrophage viability stood at 142%. Regarding `CCc1nc2c(C)nc(Nc3ccccc3)nc2n1-c1ccccc1`, the host macrophage viability is 120%.

As to `COc1ccc(OC)c2sc(N(Cc3ccncc3)C(=O)COc3ccc(Cl)cc3)nc12`, the host macrophage viability is 123%. For the molecule `CC(=O)c1csc(NC(=O)Cn2nc(C(F)(F)F)c3c2CCCC3)n1`, the host macrophage viability came to 106%.
